# Assay results as given in article doi:10.1101/2025.05.20.655052.
# Chains of the proteins cited; added tags and fusions are not shown. Lines headed by an entry give the natural chain unless they say otherwise; changes in a name come on top. Residues count along the entry.
# UniProt Q5XKP0: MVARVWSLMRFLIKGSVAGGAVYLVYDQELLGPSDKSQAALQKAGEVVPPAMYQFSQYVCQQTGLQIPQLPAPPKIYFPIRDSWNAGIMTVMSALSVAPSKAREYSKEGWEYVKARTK
# UniProt Q5TGZ0: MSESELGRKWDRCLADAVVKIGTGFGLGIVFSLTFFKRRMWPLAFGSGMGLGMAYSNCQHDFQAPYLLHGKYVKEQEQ
# UniProt P56962: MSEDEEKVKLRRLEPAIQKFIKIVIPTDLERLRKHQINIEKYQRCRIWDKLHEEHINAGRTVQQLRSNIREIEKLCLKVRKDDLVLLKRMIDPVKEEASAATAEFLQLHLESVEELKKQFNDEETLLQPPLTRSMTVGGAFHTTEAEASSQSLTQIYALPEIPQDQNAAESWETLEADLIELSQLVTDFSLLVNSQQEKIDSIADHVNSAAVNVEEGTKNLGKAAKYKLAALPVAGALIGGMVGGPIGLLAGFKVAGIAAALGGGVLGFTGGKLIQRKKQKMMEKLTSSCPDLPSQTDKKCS
# UniProt Q3ZCQ8, residues 45-353: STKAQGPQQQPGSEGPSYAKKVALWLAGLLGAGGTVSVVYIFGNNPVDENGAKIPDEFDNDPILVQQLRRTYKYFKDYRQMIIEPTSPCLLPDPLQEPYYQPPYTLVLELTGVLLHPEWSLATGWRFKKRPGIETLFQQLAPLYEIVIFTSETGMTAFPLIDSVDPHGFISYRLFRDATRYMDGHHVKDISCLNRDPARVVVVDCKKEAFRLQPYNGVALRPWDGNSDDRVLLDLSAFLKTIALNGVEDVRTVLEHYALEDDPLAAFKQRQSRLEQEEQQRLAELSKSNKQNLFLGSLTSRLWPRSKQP
# UniProt P21796: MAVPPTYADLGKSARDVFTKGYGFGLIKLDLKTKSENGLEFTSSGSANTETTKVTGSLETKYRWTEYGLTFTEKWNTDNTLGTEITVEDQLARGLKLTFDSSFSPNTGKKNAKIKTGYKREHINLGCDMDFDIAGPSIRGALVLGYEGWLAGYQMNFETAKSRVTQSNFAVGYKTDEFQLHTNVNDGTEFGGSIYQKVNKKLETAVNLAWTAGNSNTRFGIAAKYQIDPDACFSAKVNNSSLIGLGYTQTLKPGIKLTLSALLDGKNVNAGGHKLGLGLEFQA
# UniProt P12235: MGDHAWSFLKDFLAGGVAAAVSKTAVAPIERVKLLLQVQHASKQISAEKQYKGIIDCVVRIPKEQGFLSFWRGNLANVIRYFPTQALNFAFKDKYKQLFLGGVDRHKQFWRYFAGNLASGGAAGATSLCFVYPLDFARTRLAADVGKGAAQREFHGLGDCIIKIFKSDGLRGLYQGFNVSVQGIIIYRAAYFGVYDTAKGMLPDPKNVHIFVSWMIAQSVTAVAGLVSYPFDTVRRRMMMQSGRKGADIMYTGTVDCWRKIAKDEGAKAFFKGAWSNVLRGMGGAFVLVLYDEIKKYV
# UniProt Q14318: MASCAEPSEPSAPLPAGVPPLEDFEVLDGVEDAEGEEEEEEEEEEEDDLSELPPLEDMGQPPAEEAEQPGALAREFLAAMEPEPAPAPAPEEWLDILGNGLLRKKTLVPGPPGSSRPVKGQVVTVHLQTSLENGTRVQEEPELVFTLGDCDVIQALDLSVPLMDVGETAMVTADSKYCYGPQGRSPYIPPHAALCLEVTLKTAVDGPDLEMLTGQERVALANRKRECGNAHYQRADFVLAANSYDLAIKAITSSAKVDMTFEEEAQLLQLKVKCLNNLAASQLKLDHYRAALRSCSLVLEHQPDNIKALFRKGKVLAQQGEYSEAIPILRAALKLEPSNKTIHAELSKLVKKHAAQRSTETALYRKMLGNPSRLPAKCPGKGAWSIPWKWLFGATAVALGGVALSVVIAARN
# UniProt O60830: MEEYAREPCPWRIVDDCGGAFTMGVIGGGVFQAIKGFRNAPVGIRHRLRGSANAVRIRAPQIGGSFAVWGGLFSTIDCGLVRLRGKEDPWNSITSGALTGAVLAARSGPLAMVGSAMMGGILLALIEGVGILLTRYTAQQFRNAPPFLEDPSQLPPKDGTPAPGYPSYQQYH
# UniProt Q8IXI2: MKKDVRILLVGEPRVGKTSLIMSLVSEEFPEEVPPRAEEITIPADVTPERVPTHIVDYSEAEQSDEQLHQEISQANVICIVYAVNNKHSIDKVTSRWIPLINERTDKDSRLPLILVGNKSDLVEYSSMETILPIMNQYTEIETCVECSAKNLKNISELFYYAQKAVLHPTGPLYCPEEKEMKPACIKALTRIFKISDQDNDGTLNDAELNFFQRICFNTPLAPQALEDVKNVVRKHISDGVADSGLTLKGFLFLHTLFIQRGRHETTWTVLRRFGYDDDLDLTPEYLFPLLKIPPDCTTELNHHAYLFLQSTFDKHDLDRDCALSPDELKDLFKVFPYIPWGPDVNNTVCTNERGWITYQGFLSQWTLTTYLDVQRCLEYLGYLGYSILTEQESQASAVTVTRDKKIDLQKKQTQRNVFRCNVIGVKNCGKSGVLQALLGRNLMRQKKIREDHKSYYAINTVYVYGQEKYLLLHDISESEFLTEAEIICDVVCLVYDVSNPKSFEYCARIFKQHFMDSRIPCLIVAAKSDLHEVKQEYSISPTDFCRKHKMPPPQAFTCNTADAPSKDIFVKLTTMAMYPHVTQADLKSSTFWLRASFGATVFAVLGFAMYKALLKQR
# UniProt Q9BPX6, residues 34-476: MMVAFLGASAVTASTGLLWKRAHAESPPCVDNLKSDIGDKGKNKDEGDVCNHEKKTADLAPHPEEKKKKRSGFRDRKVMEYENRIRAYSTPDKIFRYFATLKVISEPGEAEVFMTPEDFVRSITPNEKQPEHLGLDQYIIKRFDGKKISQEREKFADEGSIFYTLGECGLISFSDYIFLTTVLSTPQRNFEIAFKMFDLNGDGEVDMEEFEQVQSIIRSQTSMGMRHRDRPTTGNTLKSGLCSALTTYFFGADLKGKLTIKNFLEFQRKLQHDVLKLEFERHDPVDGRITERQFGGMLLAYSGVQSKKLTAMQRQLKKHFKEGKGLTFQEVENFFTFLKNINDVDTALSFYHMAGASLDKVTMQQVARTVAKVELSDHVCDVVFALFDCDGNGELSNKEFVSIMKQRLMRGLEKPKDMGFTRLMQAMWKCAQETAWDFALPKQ
# UniProt P00414: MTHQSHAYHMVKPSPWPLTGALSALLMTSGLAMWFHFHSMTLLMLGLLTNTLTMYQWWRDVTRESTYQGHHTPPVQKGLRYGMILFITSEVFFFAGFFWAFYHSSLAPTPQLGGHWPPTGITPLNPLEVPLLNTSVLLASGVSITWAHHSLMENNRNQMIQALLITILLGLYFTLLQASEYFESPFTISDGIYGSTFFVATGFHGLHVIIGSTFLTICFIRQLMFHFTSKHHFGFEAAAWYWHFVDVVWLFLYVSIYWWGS
# UniProt Q7Z434: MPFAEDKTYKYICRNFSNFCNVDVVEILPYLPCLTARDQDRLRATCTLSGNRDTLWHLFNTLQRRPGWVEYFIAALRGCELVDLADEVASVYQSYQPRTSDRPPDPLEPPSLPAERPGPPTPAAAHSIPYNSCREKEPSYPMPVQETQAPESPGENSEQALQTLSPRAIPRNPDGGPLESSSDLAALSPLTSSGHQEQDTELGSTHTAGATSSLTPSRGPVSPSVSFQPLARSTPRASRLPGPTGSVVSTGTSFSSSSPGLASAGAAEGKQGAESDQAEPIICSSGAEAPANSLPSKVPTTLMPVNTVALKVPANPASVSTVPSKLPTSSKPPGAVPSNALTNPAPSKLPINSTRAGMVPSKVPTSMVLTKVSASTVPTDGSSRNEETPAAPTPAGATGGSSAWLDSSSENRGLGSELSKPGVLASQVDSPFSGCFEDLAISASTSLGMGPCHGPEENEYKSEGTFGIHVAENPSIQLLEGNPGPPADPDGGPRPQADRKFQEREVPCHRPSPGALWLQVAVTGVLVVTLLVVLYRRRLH
# UniProt O00429: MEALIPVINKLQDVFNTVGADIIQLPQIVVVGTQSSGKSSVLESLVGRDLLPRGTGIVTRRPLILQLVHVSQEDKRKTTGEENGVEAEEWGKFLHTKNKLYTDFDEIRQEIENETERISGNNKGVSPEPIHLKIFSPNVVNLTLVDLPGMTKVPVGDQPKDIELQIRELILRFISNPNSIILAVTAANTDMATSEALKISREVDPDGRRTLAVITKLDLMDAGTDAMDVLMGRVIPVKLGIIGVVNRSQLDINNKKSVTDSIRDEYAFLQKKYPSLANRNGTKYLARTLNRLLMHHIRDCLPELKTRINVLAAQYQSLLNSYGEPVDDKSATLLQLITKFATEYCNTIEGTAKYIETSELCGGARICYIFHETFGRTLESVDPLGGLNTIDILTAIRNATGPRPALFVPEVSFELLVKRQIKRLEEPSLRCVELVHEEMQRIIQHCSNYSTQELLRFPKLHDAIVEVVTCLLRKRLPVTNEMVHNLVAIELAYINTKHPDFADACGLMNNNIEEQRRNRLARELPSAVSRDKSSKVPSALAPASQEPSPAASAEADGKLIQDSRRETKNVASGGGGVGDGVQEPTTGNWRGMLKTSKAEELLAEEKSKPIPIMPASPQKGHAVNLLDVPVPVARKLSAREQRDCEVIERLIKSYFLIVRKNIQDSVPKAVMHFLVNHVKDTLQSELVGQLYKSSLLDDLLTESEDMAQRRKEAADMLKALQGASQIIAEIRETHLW
# UniProt Q96E52: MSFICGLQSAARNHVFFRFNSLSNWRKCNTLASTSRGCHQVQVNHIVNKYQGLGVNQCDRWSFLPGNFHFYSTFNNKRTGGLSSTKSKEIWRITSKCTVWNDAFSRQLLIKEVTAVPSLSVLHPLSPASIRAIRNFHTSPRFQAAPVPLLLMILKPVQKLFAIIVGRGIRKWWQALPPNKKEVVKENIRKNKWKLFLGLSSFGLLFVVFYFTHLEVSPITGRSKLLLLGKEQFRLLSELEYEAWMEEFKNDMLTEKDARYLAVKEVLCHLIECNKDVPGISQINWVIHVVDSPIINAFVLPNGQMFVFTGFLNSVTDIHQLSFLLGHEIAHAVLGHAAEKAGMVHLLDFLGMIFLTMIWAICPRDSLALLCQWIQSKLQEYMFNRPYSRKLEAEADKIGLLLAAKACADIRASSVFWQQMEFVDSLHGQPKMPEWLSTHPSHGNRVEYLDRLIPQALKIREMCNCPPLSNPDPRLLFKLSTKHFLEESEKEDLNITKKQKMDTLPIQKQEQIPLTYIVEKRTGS
# No constants are given. Whether binding was seen depends on the method and setting. In cells and extracts the contact can be indirect. Here binding means that the protein was enriched with, or labelled near, the bait; the list need not be complete. For part of these data: No binding means not detected with the bait. For part of these data: Sequences can lack the tags named with a protein.
# How the values were obtained:
# Test in all cases: proximity labelling
# MIC13-APEX2-Myc (human) = MIC13-APEX2-Myc (human) (UniProt Q5XKP0)
# MIC27-APEX2-Myc (human) = biological target: T1, MIC27-APEX2-Myc (human) (UniProt Q6UXV4)
# T1 sequence: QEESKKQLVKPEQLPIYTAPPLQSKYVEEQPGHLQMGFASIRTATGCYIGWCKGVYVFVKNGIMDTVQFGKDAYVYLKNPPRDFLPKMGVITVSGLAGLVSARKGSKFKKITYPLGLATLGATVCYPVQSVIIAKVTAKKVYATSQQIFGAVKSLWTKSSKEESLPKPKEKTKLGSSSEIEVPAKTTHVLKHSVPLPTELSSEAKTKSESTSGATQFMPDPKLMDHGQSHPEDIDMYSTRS
# MIC10-APEX2-Myc (human) = MIC10-APEX2-Myc (human) (UniProt Q5TGZ0)
# MIC26-APEX2-Myc (human) = biological target: T2, MIC26-APEX2-Myc (human) (UniProt Q9BUR5)
# T2 sequence: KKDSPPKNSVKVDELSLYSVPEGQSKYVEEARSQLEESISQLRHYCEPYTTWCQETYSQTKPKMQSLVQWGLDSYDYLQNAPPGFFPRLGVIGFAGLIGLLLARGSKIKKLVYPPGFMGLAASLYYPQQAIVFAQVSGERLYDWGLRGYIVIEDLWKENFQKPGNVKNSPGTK
Substance,binding (MIC13-APEX2-Myc (human)),binding (MIC27-APEX2-Myc (human)),binding (MIC10-APEX2-Myc (human)),binding (MIC26-APEX2-Myc (human))
syntaxin 17 (from UniProt P56962 1-302),binds,binds,binds,binds
translocase of inner membrane 50 (from UniProt Q3ZCQ8 45-353),binds,binds,binds,binds
voltage dependent anion channel 1 (from UniProt P21796 1-283),binds,binds,binds,binds
SLC25A4 (from UniProt P12235 1-298),binds,,,
FKBP Prolyl Isomerase 8 (from UniProt Q14318 1-412),binds,binds,binds,binds
MRPL46 (human (endogenous in HEK293)),,binds,,
MIC13 (from UniProt Q5XKP0 1-118),,binds,binds,binds
translocase of inner membrane 17B (from UniProt O60830 1-172),binds,binds,binds,binds
Ras Homolog Family Member T1 (from UniProt Q8IXI2 1-618),,,binds,
DIABLO (human (endogenous in HEK293)),,binds,,binds
mitochondrial calcium uptake 1 (from UniProt Q9BPX6 34-476),binds,binds,binds,binds
MT-CO3 (from UniProt P00414 1-261),binds,no binding,binds,no binding
mitochondrial antiviral-signaling protein (from UniProt Q7Z434 1-540),binds,binds,binds,binds
Dynamin 1 Like (from UniProt O00429 1-736),,,binds,
OMA1 (from UniProt Q96E52) (enzyme),binds,binds,binds,binds
